# Measured values from the supplement of paper PMC10849652.
# Protein sequences, listed by entry. Tags and fused reporters are not part of them. Lines headed by an entry give the natural chain unless they say otherwise; changes in a name come on top.
# UniProt Q9H0H5: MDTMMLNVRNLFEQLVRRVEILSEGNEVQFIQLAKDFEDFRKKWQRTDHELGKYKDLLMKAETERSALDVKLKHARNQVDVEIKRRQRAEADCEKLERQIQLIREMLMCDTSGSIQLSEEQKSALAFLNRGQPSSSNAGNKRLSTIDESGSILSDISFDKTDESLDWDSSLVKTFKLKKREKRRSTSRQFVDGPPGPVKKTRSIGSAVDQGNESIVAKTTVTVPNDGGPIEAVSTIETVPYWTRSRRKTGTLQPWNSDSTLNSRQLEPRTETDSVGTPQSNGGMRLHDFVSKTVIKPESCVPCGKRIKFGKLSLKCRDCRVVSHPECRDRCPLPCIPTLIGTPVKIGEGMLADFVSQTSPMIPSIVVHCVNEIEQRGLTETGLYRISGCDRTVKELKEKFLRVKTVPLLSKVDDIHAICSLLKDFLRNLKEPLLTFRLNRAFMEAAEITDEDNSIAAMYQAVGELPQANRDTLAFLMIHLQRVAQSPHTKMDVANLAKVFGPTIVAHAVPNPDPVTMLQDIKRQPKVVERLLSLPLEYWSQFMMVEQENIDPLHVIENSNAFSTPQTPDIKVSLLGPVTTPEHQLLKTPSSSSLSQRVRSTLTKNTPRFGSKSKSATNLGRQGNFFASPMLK
# UniProt Q9NP72: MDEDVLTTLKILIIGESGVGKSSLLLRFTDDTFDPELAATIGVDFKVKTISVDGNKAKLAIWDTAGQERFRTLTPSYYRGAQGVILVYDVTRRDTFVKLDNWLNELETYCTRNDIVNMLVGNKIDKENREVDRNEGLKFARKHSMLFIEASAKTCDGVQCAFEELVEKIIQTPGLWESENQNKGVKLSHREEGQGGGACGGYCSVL
# UniProt Q5HYI8: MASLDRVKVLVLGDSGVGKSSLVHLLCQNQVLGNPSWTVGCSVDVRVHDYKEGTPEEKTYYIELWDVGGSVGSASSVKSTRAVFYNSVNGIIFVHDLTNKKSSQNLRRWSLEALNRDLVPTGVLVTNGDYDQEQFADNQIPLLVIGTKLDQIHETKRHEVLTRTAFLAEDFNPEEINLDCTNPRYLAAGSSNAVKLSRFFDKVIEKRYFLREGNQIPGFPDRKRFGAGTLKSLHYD
# UniProt Q9H6Z4: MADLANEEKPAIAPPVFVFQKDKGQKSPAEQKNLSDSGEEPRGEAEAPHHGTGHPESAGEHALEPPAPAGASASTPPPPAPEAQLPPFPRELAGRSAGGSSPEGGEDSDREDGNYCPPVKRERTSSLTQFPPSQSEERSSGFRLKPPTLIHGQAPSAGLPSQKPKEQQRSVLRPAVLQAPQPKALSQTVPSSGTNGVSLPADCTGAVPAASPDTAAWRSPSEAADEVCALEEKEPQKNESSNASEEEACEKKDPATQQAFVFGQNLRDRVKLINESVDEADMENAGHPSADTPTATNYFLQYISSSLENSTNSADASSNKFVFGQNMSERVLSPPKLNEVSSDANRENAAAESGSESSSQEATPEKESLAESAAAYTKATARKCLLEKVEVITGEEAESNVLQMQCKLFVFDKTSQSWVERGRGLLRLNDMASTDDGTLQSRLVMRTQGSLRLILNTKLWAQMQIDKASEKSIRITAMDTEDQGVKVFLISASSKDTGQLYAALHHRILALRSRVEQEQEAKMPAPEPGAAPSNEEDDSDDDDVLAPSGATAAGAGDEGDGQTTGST
# UniProt P51153: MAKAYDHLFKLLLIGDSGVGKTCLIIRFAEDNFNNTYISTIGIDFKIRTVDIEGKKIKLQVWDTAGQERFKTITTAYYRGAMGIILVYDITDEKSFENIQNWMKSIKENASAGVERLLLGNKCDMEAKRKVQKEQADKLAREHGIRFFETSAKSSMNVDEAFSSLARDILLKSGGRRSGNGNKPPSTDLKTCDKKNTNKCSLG
# UniProt P61006: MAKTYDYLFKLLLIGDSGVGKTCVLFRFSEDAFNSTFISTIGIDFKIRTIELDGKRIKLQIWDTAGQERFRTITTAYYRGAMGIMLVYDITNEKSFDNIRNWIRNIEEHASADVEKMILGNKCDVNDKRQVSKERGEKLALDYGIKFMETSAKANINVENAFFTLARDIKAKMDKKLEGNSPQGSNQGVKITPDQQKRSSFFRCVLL
# UniProt Q9BRP8: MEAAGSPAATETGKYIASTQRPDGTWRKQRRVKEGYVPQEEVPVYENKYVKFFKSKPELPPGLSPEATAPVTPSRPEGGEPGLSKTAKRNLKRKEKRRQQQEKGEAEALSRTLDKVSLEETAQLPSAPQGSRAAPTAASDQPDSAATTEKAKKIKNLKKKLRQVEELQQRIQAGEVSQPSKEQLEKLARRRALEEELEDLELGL
# UniProt Q15286: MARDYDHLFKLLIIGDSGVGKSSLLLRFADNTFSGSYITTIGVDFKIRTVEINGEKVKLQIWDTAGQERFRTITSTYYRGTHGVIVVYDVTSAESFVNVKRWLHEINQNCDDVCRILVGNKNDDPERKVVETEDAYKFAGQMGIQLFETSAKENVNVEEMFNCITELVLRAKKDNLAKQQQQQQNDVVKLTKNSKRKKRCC
# UniProt P49792, whole entry, looked up: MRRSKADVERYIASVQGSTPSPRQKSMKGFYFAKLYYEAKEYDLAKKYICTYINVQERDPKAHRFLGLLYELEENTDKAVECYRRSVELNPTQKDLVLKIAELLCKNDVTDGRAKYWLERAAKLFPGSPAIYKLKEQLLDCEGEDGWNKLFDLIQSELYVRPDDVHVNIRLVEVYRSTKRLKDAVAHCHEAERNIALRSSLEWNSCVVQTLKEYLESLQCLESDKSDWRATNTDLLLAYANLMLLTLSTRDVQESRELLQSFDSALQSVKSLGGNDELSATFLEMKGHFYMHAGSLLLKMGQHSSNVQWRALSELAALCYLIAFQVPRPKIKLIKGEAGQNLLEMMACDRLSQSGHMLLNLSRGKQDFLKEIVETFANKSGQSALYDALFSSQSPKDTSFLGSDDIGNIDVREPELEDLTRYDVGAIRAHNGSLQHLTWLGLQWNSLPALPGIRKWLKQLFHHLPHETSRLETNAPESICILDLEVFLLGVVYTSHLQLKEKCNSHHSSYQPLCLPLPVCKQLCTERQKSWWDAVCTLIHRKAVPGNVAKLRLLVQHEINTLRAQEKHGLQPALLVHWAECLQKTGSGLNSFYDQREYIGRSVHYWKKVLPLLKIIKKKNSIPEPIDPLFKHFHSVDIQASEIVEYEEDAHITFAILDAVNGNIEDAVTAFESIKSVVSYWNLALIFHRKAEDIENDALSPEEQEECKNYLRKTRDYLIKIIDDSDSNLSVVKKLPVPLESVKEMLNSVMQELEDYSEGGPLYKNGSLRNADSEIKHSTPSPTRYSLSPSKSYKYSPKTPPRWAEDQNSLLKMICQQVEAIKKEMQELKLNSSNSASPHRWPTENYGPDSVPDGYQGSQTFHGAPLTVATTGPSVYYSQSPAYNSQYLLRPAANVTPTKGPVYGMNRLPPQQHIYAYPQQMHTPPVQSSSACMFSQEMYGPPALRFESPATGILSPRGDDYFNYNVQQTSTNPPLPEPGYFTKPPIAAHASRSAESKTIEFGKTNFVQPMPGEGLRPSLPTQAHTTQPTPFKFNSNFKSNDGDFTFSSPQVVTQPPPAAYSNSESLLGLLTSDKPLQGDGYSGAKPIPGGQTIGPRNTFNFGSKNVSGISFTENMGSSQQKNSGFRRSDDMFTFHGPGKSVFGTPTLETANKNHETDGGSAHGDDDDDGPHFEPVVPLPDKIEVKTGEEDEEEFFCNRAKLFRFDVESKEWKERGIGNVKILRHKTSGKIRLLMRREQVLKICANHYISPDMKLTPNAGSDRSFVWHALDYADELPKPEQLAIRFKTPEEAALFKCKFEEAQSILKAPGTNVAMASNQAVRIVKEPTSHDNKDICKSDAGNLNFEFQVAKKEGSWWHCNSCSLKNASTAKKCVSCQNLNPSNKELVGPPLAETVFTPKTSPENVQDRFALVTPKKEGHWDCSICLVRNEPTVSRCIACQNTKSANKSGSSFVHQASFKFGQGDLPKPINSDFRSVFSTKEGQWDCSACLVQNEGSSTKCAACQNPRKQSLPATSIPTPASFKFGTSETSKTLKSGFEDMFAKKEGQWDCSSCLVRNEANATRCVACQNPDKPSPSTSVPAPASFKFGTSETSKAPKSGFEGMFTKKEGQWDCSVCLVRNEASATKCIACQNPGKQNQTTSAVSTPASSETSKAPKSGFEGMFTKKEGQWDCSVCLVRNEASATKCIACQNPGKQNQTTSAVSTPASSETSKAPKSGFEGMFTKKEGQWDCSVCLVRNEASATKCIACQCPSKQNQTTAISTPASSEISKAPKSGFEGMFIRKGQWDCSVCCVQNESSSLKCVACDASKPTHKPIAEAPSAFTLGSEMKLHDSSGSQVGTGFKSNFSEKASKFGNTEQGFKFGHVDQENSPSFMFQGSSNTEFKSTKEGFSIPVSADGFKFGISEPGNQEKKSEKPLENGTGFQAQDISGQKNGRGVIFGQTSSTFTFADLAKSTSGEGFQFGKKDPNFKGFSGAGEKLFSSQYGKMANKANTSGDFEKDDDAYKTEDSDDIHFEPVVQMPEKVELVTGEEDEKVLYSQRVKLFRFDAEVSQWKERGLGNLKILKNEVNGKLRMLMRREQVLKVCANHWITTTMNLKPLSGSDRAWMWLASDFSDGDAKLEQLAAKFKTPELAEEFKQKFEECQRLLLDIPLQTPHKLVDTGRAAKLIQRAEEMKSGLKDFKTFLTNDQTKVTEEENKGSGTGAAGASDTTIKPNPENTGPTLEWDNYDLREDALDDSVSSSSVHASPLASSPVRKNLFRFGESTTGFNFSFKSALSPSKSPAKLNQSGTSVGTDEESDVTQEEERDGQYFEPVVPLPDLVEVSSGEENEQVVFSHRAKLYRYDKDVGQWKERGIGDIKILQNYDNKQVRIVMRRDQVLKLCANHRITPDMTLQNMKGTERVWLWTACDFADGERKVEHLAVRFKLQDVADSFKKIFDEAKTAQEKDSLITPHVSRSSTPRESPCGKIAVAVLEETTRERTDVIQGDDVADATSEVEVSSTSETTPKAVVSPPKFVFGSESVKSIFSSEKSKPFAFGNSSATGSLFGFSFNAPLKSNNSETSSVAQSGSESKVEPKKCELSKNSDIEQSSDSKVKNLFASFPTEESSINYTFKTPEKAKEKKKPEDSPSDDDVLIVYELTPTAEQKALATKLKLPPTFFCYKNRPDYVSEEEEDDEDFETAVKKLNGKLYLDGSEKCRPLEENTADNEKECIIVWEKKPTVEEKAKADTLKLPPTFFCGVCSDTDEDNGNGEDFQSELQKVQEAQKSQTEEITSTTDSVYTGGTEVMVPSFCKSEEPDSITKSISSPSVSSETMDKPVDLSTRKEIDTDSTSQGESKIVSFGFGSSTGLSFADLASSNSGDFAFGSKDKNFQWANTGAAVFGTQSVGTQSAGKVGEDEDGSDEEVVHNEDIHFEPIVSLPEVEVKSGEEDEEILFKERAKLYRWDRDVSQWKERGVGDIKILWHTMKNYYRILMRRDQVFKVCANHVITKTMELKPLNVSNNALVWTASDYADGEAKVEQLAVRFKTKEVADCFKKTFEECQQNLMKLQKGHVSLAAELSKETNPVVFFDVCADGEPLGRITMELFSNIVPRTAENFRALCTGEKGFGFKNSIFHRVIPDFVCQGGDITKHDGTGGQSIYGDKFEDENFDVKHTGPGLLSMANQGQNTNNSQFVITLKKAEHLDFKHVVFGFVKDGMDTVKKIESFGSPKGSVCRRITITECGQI
# UniProt Q9UJ41, whole entry, looked up: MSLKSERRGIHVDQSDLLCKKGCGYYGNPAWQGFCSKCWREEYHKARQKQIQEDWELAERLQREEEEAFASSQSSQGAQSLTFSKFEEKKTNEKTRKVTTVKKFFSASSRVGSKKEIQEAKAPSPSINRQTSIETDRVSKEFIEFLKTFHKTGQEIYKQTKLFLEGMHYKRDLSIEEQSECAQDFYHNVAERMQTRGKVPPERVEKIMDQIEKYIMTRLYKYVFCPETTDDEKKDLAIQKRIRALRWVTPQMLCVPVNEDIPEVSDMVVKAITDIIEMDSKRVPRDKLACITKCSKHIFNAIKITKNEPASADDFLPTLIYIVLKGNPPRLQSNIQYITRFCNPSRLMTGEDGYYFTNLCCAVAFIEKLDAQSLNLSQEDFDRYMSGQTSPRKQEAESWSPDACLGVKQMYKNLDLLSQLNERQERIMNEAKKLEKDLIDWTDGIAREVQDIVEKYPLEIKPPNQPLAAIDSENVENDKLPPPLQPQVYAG
# UniProt Q96PU8: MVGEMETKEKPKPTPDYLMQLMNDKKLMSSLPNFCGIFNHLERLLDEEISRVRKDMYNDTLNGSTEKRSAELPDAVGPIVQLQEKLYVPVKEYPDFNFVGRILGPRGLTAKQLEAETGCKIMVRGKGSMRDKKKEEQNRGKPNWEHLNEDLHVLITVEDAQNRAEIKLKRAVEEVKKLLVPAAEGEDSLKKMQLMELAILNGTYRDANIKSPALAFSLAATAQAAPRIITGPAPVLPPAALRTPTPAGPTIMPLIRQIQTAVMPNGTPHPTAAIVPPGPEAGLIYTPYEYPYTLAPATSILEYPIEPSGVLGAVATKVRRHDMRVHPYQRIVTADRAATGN
# The other results are listed elsewhere or left out.
# Legend:
# Experiment in all cases: log2 fold change, soluble protein after heating vs DMSO (PISA); higher = thermal stabilisation; K562 lysate, 10 uM; active = over 0.2 and 3.5 SD of the protein, either way, in both replicates (recomputed)
# alvocidib = compound: CN1CC[C@H](c2c(O)cc(O)c3c(=O)cc(-c4ccccc4Cl)oc23)[C@H](O)C1 [alvocidib]
# Outline: (§1)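 Values give the log-two fold change in thermal stability against solvent controls, from duplicates. Crude K562 extract at 1 mg/mL protein, made by dounce homogenisation in PBS pH 7.4 with 1 mM MgCl2, was treated with 10 μM compound for 30 min. After 3 min heating across 48°C-58°C, aliquots were pooled, adjusted to 0.5% NP-40 at 4°C and centrifuged at 21,000xg for 90 min. The supernatant was measured by TMTpro 16plex LC-MS/MS with channel sums equalised.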
# Tubastatin A = compound: CN1CCc2c(c3ccccc3n2Cc2ccc(C(=O)NO)cc2)C1 [Tubastatin A]
# Outline: as §1
# [1] = compound: CNC(=O)C1=CC=CC=C1NC2=NC(=NC=C2Cl)NC3=C(C=C(C=C3)N4CCOCC4)OC
# Outline: as §1
# defactinib = compound: CNC(=O)c1ccc(Nc2ncc(C(F)(F)F)c(NCc3nccnc3N(C)S(C)(=O)=O)n2)cc1 [defactinib]
# Outline: as §1
# [2] = compound: CNc1nc(-c2ccc3c(N)n[nH]c3c2)cc(N2C[C@@H](C(=O)NC3CCCCC3)CC[C@H]2C)n1
# Outline: as §1
# encorafenib = compound: COC(=O)N[C@@H](C)CNc1nccc(-c2cn(C(C)C)nc2-c2cc(Cl)cc(NS(C)(=O)=O)c2F)n1 [encorafenib]
# Outline: as §1
# [3] = compound: COC(=O)[C@H](CCSC)NC(=O)C1=C(C=C(C=C1)NC[C@H](CS)N)C2=CC=CC=C2
# Outline: as §1
# alisertib = compound: COc1cc(Nc2ncc3c(n2)-c2ccc(Cl)cc2C(c2c(F)cccc2OC)=NC3)ccc1C(=O)O [alisertib]
# Outline: as §1
# [4] = compound: COc1cc2nc(-c3cc(F)ccc3O)nc(N[C@@H]3CNC[C@H]3C(C)(C)O)c2cc1OC
# Outline: as §1
# gefitinib = compound: COc1cc2ncnc(Nc3ccc(F)c(Cl)c3)c2cc1OCCCN1CCOCC1 [gefitinib]
# Outline: as §1
# lapatinib = compound: CS(=O)(=O)CCNCc1ccc(-c2ccc3ncnc(Nc4ccc(OCc5cccc(F)c5)c(Cl)c4)c3c2)o1 [lapatinib]
# Outline: as §1
# pictilisib = compound: CS(=O)(=O)N1CCN(Cc2cc3nc(-c4cccc5[nH]ncc45)nc(N4CCOCC4)c3s2)CC1 [pictilisib]
# Outline: as §1
# crizotinib = compound: C[C@@H](Oc1cc(-c2cnn(C3CCNCC3)c2)cnc1N)c1c(Cl)ccc(F)c1Cl [crizotinib]
# Outline: as §1
# [5] = compound: C[C@H](C1=CC=C(C=C1)C(=O)NC2=C3C=CNC3=NC=C2)N
# Outline: as §1
# duvelisib = compound: C[C@H](Nc1ncnc2nc[nH]c12)c1cc2cccc(Cl)c2c(=O)n1-c1ccccc1 [duvelisib]
# Outline: as §1
# gandotinib = compound: Cc1cc(Nc2cc(CN3CCOCC3)c3nc(C)c(Cc4ccc(Cl)cc4F)n3n2)n[nH]1 [gandotinib]
# Outline: as §1
# tozasertib = compound: Cc1cc(Nc2cc(N3CCN(C)CC3)nc(Sc3ccc(NC(=O)C4CC4)cc3)n2)n[nH]1 [tozasertib]
# Outline: as §1
# doramapimod = compound: Cc1ccc(-n2nc(C(C)(C)C)cc2NC(=O)Nc2ccc(OCCN3CCOCC3)c3ccccc23)cc1 [doramapimod]
# Outline: as §1
# bafetinib = compound: Cc1ccc(NC(=O)c2ccc(CN3CC[C@H](N(C)C)C3)c(C(F)(F)F)c2)cc1Nc1nccc(-c2cncnc2)n1 [bafetinib]
# Outline: as §1
# [6] = compound: Cc1cccc(CC(=O)N2CCc3c2ccc(-c2cn(C)c4ncnc(N)c24)c3F)n1
# Outline: as §1
Target,log2 fold change (alvocidib),log2 fold change (Tubastatin A),log2 fold change [1],log2 fold change (defactinib),log2 fold change [2],log2 fold change (encorafenib),log2 fold change [3],log2 fold change (alisertib),log2 fold change [4],log2 fold change (gefitinib),log2 fold change (lapatinib),log2 fold change (pictilisib),log2 fold change (crizotinib),log2 fold change [5],log2 fold change (duvelisib),log2 fold change (gandotinib),log2 fold change (tozasertib),log2 fold change (doramapimod),log2 fold change (bafetinib),log2 fold change [6]
RACGAP1 (UniProt Q9H0H5),inactive: -0.031,inactive: -0.091,inactive: 0.055,inactive: -0.039,inactive: -0.033,inactive: 0.057,inactive: -0.07,inactive: -0.067,inactive: -0.091,inactive: 0.002,inactive: 0.074,inactive: -0.039,inactive: -0.072,inactive: -0.011,inactive: 0.045,inactive: -0.059,inactive: 0.028,inactive: 0.022,inactive: -0.032,inactive: 0.077
RAE1 (UniProt P78406),inactive: -0.038,inactive: -0.072,inactive: 0.039,inactive: -0.004,inactive: -0.044,inactive: 0.038,active: 0.345,inactive: -0.015,inactive: -0.002,inactive: 0.033,inactive: 0.055,inactive: 0.003,inactive: 0.05,inactive: -0.158,inactive: -0.063,inactive: 0.031,inactive: -0.071,inactive: -0.032,inactive: 0.235,inactive: 0.111
RANBP9 (UniProt Q96S59),inactive: -0.002,inactive: -0.036,inactive: -0.018,inactive: -0.03,inactive: 0.017,inactive: 0.03,inactive: 0.001,inactive: -0.005,inactive: -0.009,inactive: -0.019,inactive: -0.021,inactive: 0.03,inactive: -0.015,inactive: -0.004,inactive: 0,inactive: -0.022,inactive: -0.003,inactive: 0.015,inactive: -0.025,inactive: 0.063
RAB12 (UniProt Q6IQ22),inactive: -0.014,inactive: 0.045,inactive: 0.014,inactive: 0.015,inactive: -0.027,inactive: -0.004,inactive: -0.017,inactive: -0.003,inactive: 0.024,inactive: 0.076,inactive: -0.016,inactive: -0.029,inactive: -0.034,inactive: -0.06,inactive: 0.025,inactive: 0.022,inactive: -0.006,inactive: 0.048,inactive: -0.029,inactive: 0.04
RAB18 isoform 2 (UniProt Q9NP72),inactive: -0.066,inactive: 0.052,inactive: 0.007,inactive: 0.028,inactive: -0.006,inactive: 0.007,inactive: 0.042,inactive: 0.025,inactive: 0.068,inactive: 0,inactive: -0.019,inactive: 0.041,inactive: 0.008,inactive: -0.051,inactive: 0.001,inactive: 0.05,inactive: 0.007,inactive: -0.068,inactive: -0.022,inactive: 0.135
RABL3 (UniProt Q5HYI8),inactive: -0.023,inactive: -0.193,inactive: 0.154,inactive: 0,inactive: -0.021,inactive: 0.02,inactive: -0.01,inactive: -0.036,inactive: -0.038,inactive: 0.005,inactive: 0.036,inactive: -0.028,inactive: -0.102,inactive: -0.017,inactive: 0.198,inactive: -0.097,inactive: -0.003,inactive: 0.085,inactive: -0.05,inactive: 0.031
RAF1 isoform 2 (UniProt P04049),inactive: 0.048,inactive: -0.022,inactive: 0.019,inactive: -0.097,inactive: -0.001,active: 1.06,inactive: 0.048,inactive: -0.007,inactive: 0.052,inactive: 0.022,inactive: 0.077,inactive: 0.014,inactive: -0.047,inactive: 0.046,inactive: -0.014,inactive: -0.118,inactive: 0.025,inactive: 0.025,inactive: -0.004,inactive: -0.016
RANBP3 (UniProt Q9H6Z4),inactive: -0.011,inactive: 0.03,inactive: 0.022,inactive: 0,inactive: 0.018,inactive: -0.035,inactive: -0.029,inactive: 0.003,inactive: 0.019,inactive: 0.004,inactive: -0.005,inactive: -0.021,inactive: 0.002,inactive: -0.01,inactive: 0.008,inactive: 0.04,inactive: -0.024,inactive: -0.002,inactive: 0.004,inactive: 0.005
RAB13 (UniProt P51153),inactive: 0.015,inactive: -0.085,inactive: -0.056,inactive: 0.061,inactive: -0.141,inactive: 0.101,inactive: -0.054,inactive: 0.057,inactive: 0.01,inactive: 0.05,inactive: 0.018,inactive: 0.018,inactive: 0.182,inactive: 0.022,inactive: 0.022,inactive: -0.105,inactive: 0.082,inactive: 0.003,inactive: 0.13,inactive: -0.041
RAB8A (UniProt P61006),inactive: 0.019,inactive: 0.011,inactive: -0.026,inactive: -0.001,inactive: -0.093,inactive: 0.05,inactive: -0.034,inactive: 0.006,inactive: 0.04,inactive: 0.034,inactive: -0.039,inactive: -0.017,inactive: 0.102,inactive: -0.038,inactive: 0.009,inactive: -0.025,inactive: 0.028,inactive: -0.021,inactive: -0.002,inactive: -0.012
PYM1 (UniProt Q9BRP8),inactive: -0.05,inactive: 0.094,inactive: 0.017,inactive: 0.004,inactive: 0.1,inactive: 0.04,inactive: -0.071,inactive: -0.007,inactive: 0.005,inactive: -0.042,inactive: 0.019,inactive: 0.008,inactive: -0.011,inactive: -0.004,inactive: -0.05,inactive: 0.003,inactive: 0.004,inactive: 0.051,inactive: 0.012,inactive: 0.036
RAB35 (UniProt Q15286),inactive: -0.03,inactive: 0.088,inactive: -0.003,inactive: 0.014,inactive: 0.025,inactive: 0.022,inactive: -0.056,inactive: 0.024,inactive: 0.103,inactive: 0.031,inactive: -0.022,inactive: 0.039,inactive: 0.037,inactive: -0.033,inactive: 0.006,inactive: -0.027,inactive: -0.01,inactive: -0.013,inactive: -0.002,inactive: 0.023
RANGAP1 (UniProt P46060),inactive: 0.015,inactive: -0.064,inactive: 0.008,inactive: 0.001,inactive: -0.027,inactive: -0.008,inactive: 0.03,inactive: 0.026,inactive: 0.005,inactive: 0.007,inactive: -0.012,inactive: 0.005,inactive: -0.014,inactive: -0.016,inactive: -0.028,inactive: -0.046,inactive: 0.005,inactive: -0.008,inactive: 0.015,inactive: -0.003
RANBP2 (UniProt P49792),inactive: -0.001,inactive: -0.169,inactive: 0.011,inactive: 0.004,inactive: -0.041,inactive: 0.038,inactive: 0.042,inactive: -0.01,inactive: 0,inactive: -0.013,inactive: 0.002,inactive: -0.001,inactive: -0.01,inactive: -0.009,inactive: -0.014,inactive: -0.069,inactive: 0.001,inactive: -0.002,inactive: -0.02,inactive: 0.06
RABGEF1 isoform 3 (UniProt Q9UJ41),inactive: 0.002,inactive: 0.023,inactive: -0.029,inactive: -0.001,inactive: -0.069,inactive: -0.018,inactive: -0.037,inactive: -0.018,inactive: -0.007,inactive: -0.027,inactive: 0.016,inactive: 0.011,inactive: 0.006,inactive: -0.028,inactive: -0.001,inactive: -0.008,inactive: 0.028,inactive: 0.008,inactive: -0.04,inactive: 0.004
QKI (UniProt Q96PU8),inactive: -0.058,inactive: -0.005,inactive: 0.024,inactive: 0.029,inactive: -0.02,inactive: 0.045,inactive: -0.206,inactive: 0.069,inactive: 0.009,inactive: 0.021,inactive: -0.002,inactive: 0.015,inactive: 0.047,active: -0.212,inactive: -0.017,inactive: 0.163,inactive: -0.021,inactive: -0.043,inactive: -0.056,inactive: 0.155

# Single records (already shown). Values in the order: log2 fold change (alvocidib)	log2 fold change (Tubastatin A)	log2 fold change [1]	log2 fold change (defactinib)	log2 fold change [2]	log2 fold change (encorafenib)	log2 fold change [3]	log2 fold change (alisertib)	log2 fold change [4]	log2 fold change (gefitinib)	log2 fold change (lapatinib)	log2 fold change (pictilisib)	log2 fold change (crizotinib)	log2 fold change [5]	log2 fold change (duvelisib)	log2 fold change (gandotinib)	log2 fold change (tozasertib)	log2 fold change (doramapimod)	log2 fold change (bafetinib)	log2 fold change [6]
# QKI (UniProt Q96PU8) as listed: inactive: -0.058	inactive: -0.005	inactive: 0.024	inactive: 0.029	inactive: -0.02	inactive: 0.045	inactive: -0.206	inactive: 0.069	inactive: 0.009	inactive: 0.021	inactive: -0.002	inactive: 0.015	inactive: 0.047	active: -0.212	inactive: -0.017	inactive: 0.163	inactive: -0.021	inactive: -0.043	inactive: -0.056	inactive: 0.155
# RACGAP1 (UniProt Q9H0H5) as listed: inactive: -0.031	inactive: -0.091	inactive: 0.055	inactive: -0.039	inactive: -0.033	inactive: 0.057	inactive: -0.07	inactive: -0.067	inactive: -0.091	inactive: 0.002	inactive: 0.074	inactive: -0.039	inactive: -0.072	inactive: -0.011	inactive: 0.045	inactive: -0.059	inactive: 0.028	inactive: 0.022	inactive: -0.032	inactive: 0.077
